Source: patent US20200010562A1, “NEW THERAPEUTIC STRATEGIES AGAINST BLOOD CANCER” (priority 2015, published 2020)
For part of these data: At least one compound was matched to its structure with a doubt left. Some results were stated once for a whole list of compounds, not compound by compound.

Columns and labels:
[1] = system: MEC1; experiment: Survival/mortality of MEC1 in control or FMD medium; format: cell-based, human; details: FMD vs control medium
[2] = system: MEC2; experiment: Survival/mortality of MEC2 in control or FMD medium; format: cell-based, human; details: FMD vs control medium
[3] = system: L1210; experiment: Erythrosin B exclusion survival/mortality of L1210 in control or FMD medium; format: cell-based, murine; details: control (non-starved) medium, 24 hours drug

Structure (SMILES) | effect of FMD medium on growth inhibitory effect of the drug [1] | effect of FMD medium on growth inhibitory effect of the drug [2] | living cells compared to the untreated samples [3]
C/C=C1\NC(=O)[C@H]2CSSCC/C=C/[C@H](CC(=O)N[C@H](C(C)C)C(=O)N2)OC(=O)[C@H](C(C)C)NC1=O [Romidepsin] | remarkably improved | remarkably improved | –
C=C1C[C@@H]2CC[C@@]34C[C@H]5O[C@H]6[C@@H](O3)[C@H]3O[C@H](CC[C@@H]3O[C@H]6[C@H]5O4)CC(=O)C[C@@H]3[C@@H](OC)[C@@H](C[C@H](O)CN)O[C@H]3C[C@H]3O[C@@H](CC[C@@H]1O2)C[C@@H](C)C3=C [Eribulin] | – | – | less than 50%
